Assay results from publication PMC8366450.
No constants are given. Whether binding was seen depends on the method and setting. Some results given as binding are weak or reduced against the parent protein; the word gives no strength.

Tests used:
[1] = biological target: human recombinant CPPED1 with N-terminal His-V5 dual tag (human) (UniProt Q9BRF8); assay: SEC-MALS; Superdex 200 HR 5/150 GL size-exclusion column with static light scattering (SLS) instrument (Wyatt Technology); purified recombinant CPPED1; both purified
[2] = biological target: T1, Apoptosis inhibitor 5 (human) (UniProt Q9BZZ5); assay: peptide or protein array; HuProt v3.1 human proteome microarray; >20 000 human recombinant proteins immobilised on the array; purified His-V5-CPPED1 applied; both purified
T1 sequence: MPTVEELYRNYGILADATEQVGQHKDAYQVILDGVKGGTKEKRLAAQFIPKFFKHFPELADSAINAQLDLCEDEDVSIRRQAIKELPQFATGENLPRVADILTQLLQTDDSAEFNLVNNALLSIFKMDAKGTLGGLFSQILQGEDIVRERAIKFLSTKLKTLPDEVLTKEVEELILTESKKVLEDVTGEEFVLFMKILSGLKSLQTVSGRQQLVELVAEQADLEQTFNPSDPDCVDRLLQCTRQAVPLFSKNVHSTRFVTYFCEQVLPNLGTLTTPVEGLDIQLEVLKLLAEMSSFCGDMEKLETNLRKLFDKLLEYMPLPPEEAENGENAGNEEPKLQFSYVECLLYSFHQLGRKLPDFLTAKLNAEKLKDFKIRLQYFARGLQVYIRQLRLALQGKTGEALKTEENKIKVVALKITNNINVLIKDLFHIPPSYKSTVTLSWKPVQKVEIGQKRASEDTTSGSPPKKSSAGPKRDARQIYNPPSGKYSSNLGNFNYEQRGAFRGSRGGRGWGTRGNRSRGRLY

[3] = biological target: T2, RNA binding motif protein 42 (human) (UniProt Q9BTD8); assay: as above
T2 sequence: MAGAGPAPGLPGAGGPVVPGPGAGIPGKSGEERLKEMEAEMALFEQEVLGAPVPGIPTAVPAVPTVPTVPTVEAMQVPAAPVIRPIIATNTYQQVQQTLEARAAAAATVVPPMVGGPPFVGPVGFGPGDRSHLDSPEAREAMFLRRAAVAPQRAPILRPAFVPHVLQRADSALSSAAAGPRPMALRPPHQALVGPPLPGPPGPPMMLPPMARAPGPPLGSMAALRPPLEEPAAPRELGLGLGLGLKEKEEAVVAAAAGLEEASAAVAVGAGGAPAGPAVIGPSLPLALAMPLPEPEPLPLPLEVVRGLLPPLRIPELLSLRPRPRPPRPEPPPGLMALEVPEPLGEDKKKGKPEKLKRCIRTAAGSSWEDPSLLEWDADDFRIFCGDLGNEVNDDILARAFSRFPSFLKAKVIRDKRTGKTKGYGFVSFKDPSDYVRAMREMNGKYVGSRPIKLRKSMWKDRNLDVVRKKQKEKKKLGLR

[4] = biological target: T3, sorbin and SH3 domain containing 1 (human) (UniProt Q9BX66); assay: as above
T3 sequence: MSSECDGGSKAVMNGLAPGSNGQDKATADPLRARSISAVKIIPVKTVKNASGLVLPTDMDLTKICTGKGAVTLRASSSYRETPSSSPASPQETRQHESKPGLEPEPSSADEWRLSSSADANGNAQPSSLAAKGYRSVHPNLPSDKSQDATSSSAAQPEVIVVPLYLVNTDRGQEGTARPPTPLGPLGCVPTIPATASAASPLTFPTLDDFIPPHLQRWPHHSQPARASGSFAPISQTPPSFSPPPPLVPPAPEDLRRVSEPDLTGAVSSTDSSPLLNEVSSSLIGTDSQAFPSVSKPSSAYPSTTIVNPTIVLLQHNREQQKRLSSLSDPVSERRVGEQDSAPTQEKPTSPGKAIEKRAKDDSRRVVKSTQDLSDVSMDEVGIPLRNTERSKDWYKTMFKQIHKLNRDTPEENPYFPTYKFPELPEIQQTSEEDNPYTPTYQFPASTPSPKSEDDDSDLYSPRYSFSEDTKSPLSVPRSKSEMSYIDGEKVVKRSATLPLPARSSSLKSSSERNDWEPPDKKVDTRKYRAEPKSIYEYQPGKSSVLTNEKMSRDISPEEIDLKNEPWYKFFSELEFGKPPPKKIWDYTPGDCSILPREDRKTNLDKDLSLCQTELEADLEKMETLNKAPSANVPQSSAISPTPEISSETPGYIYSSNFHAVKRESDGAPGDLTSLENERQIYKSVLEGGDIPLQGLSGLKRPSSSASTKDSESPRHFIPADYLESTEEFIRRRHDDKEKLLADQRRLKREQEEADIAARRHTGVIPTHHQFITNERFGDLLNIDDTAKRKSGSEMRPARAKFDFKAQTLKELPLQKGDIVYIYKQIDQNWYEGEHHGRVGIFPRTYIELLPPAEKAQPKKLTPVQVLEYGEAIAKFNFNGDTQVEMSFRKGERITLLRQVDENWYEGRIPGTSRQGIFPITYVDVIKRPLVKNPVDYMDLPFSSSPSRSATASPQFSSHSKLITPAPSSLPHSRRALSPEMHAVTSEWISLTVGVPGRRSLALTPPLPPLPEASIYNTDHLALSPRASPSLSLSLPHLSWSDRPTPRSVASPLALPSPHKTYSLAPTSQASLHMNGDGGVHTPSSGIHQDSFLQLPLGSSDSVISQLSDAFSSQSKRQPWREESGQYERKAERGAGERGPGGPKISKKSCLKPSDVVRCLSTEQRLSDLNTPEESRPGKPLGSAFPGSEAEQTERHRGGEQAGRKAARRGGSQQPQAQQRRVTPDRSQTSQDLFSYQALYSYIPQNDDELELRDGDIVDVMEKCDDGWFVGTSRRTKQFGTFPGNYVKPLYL

[5] = biological target: T4, Adenosine deaminase, tRNA specific 3 (human) (UniProt Q96EY9); assay: as above
T4 sequence: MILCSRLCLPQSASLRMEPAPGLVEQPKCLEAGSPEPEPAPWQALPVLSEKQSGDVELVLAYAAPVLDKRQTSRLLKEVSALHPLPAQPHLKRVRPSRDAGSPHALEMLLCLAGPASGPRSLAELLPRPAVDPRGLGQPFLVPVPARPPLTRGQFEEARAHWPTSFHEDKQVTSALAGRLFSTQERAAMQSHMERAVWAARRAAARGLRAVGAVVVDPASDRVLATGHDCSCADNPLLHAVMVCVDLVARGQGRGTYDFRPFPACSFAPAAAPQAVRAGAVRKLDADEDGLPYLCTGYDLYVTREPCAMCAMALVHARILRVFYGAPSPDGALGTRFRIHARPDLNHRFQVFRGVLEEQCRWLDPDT

Q: What does the source list for “human recombinant CPPED1 with N-terminal His-V5 dual tag (from UniProt Q9BRF8 1-314) (enzyme)”?
A: binding [1]: no binding; binding [2]: binds; binding [3]: binds; binding [4]: binds; binding [5]: binds
